Reference: publication PMC7948500, “Comparative interactomes of HSF1 in stress and disease reveal a role for CTCF in HSF1-mediated gene regulation” (The Journal of Biological Chemistry, 2020)
No constants are given. Whether binding was seen depends on the method and setting. Binding seen in cells or lysates may run through a third protein. Some binding calls cover weakened binding; strength is not graded here. Where a sequence is shown, tags or fusion partners need not be part of it.

The chains behind the UniProt entries cited, without tags or fusion partners. Where a name states a change or a piece, a line headed by the entry shows the natural chain unless it says otherwise.
UniProt Q00613: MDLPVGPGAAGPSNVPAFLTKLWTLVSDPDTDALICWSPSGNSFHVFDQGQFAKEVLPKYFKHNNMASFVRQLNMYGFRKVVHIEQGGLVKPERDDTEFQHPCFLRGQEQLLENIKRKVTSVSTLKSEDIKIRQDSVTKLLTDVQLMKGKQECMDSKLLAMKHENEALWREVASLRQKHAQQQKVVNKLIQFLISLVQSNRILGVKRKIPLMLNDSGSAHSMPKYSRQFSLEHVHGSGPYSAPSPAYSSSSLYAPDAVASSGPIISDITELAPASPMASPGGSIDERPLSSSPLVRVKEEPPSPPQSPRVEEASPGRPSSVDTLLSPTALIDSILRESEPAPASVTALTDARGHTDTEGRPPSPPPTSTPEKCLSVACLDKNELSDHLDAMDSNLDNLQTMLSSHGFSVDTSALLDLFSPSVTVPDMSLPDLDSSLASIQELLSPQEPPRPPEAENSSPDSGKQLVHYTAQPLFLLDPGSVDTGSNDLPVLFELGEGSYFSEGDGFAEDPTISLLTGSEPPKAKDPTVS

T1: hemagglutinin-tagged CTCF (UniProt P49711)
T1 sequence: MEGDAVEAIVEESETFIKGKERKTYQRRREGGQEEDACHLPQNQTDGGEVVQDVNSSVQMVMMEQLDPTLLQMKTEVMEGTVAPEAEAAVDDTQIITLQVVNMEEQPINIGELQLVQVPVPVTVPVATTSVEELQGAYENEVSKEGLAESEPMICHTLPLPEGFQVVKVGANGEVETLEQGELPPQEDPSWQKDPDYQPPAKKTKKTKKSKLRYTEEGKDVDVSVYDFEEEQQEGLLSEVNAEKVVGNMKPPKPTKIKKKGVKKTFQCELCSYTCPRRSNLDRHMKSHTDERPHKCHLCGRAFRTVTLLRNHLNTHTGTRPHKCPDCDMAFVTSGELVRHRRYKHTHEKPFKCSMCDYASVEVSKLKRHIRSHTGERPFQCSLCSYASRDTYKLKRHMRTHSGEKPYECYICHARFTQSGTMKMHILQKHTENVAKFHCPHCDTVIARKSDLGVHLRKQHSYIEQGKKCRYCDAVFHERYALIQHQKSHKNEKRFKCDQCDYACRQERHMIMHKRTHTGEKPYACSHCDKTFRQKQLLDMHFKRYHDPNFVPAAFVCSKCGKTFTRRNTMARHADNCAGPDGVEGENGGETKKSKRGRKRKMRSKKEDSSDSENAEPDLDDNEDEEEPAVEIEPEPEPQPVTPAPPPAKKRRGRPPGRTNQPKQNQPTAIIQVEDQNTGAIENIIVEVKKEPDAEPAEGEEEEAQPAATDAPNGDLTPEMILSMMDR


Assays:
[1] = target: T1, hemagglutinin-tagged CTCF; experiment: co-IP; HA pull-down on anti-HA magnetic beads from stable HSF1-knockdown HEK 293T cells transfected with HA-CTCF and WT or R71A HSF1, control and heat shock; immunoblot with anti-HSF1
[2] = target: T1, hemagglutinin-tagged CTCF; experiment: co-IP; HA-CTCF co-purification with WT and R71A HSF1 in transfected HSF1-/- mouse embryonic fibroblasts (Fig. S3B)
[3] = target: T1, hemagglutinin-tagged CTCF; experiment: co-IP; HA pull-down on anti-HA magnetic beads from HEK 293T cells transfected with HA-CTCF, control or heat shock (30 min, 42 °C); immunoblot for HSF1
[4] = target: heat shock transcription factor 1 (endogenous, HEK 293T) (human (endogenous in HEK 293T)) (UniProt Q00613); experiment: co-IP; endogenous HSF1 immunoprecipitated (anti-HSF1, DynaG beads) from unstressed HEK 293T cells transfected with HA-CTCF; immunoblot for HA-CTCF; IgG control

| Molecule | binding [1] | binding [2] | binding [3] | binding [4] |
| --- | --- | --- | --- | --- |
| heat shock transcription factor 1 (endogenous, HEK 293T) (from UniProt Q00613 1-529) |  |  | binds |  |
| hemagglutinin-tagged CTCF (protein, UniProt P49711 1-727) MEGDAVEAIVEESETFIKGKERKTYQRRREGGQEEDACHLPQNQTDGGEVVQDVNSSVQMVMMEQLDPTLLQMKTEVMEGTVAPEAEAAVDDTQIITLQVVNMEEQPINIGELQLVQVPVPVTVPVATTSVEELQGAYENEVSKEGLAESEPMICHTLPLPEGFQVVKVGANGEVETLEQGELPPQEDPSWQKDPDYQPPAKKTKKTKKSKLRYTEEGKDVDVSVYDFEEEQQEGLLSEVNAEKVVGNMKPPKPTKIKKKGVKKTFQCELCSYTCPRRSNLDRHMKSHTDERPHKCHLCGRAFRTVTLLRNHLNTHTGTRPHKCPDCDMAFVTSGELVRHRRYKHTHEKPFKCSMCDYASVEVSKLKRHIRSHTGERPFQCSLCSYASRDTYKLKRHMRTHSGEKPYECYICHARFTQSGTMKMHILQKHTENVAKFHCPHCDTVIARKSDLGVHLRKQHSYIEQGKKCRYCDAVFHERYALIQHQKSHKNEKRFKCDQCDYACRQERHMIMHKRTHTGEKPYACSHCDKTFRQKQLLDMHFKRYHDPNFVPAAFVCSKCGKTFTRRNTMARHADNCAGPDGVEGENGGETKKSKRGRKRKMRSKKEDSSDSENAEPDLDDNEDEEEPAVEIEPEPEPQPVTPAPPPAKKRRGRPPGRTNQPKQNQPTAIIQVEDQNTGAIENIIVEVKKEPDAEPAEGEEEEAQPAATDAPNGDLTPEMILSMMDR |  |  |  | binds |

Results, then the molecule that gave them:

| binding [1] | binding [2] | binding [3] | binding [4] | Molecule |
| --- | --- | --- | --- | --- |
| binds | binds |  |  | HSF1 R71A (from UniProt Q00613 1-529) |
| binds | binds |  |  | WT HSF1 (transfected) (from UniProt Q00613 1-529) |
